30 sequences from paper PMC7862700 can be followed below.

Sequences of proteins named here, by UniProt entry; tags and fusion partners are left off. A change or cut given only in a name is not applied to a line headed by its entry.
UniProt Q01892: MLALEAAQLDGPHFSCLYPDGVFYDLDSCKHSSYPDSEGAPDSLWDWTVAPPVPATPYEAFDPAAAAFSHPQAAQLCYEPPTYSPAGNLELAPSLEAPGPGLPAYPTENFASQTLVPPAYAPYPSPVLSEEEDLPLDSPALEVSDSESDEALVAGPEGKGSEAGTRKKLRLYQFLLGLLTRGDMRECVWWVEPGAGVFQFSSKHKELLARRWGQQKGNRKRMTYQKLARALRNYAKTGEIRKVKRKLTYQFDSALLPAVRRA
UniProt P41161: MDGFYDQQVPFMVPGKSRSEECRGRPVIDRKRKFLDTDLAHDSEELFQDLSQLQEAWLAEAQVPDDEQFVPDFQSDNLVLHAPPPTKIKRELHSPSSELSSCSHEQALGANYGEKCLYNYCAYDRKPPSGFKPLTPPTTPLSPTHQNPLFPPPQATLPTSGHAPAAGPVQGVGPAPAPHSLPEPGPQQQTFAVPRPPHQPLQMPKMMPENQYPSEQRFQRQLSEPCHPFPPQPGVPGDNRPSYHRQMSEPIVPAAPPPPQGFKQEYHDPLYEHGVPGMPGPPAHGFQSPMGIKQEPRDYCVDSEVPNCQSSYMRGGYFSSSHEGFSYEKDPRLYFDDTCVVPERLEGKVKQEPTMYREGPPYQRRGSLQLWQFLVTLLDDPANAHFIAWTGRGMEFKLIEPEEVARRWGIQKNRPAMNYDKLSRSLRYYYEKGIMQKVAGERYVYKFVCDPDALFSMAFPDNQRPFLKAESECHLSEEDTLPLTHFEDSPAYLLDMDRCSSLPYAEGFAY
UniProt Q99607: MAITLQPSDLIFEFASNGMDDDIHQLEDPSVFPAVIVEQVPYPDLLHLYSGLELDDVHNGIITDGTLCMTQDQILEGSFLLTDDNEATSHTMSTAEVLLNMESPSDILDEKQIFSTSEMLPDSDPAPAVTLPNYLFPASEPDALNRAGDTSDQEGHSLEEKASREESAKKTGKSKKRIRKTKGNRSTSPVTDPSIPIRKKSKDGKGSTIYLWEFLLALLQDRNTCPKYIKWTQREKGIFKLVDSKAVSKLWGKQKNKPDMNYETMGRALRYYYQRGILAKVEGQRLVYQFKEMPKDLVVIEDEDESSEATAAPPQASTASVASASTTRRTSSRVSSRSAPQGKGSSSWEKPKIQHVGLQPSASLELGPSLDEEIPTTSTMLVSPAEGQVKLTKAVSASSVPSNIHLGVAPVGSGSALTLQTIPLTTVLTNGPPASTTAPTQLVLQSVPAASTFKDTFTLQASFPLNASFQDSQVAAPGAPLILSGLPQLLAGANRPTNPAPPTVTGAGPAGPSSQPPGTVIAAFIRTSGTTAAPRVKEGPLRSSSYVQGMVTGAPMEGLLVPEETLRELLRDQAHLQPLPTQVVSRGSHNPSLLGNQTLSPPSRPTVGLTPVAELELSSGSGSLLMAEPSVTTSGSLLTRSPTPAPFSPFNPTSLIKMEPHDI

The entries are a selection whose mix differs from that of the whole data set. At the low end of the ranking the order means little.

Among the targets are SPIB (UniProt Q01892); ETV5 (UniProt P41161); ELF4 (UniProt Q99607).
What all share (assay): DAPPL (digital affinity profiling via proximity ligation, sequencing)
Common to all, as to conditions: 10 mM Tris-HCl pH 7.5, 50 mM NaCl, 1 mM DTT, 4% glycerol, room temperature, 30 min; GST-TFs on glutathione beads, 16-mer random dsDNA library, 0.1% …; high values mean tight binding; double strand, one strand shown; scale: fold enrichment (6-mer frequency, TF over GST control)

The next assay has as its target T1, FLI1 (UniProt Q01543).
T1 sequence: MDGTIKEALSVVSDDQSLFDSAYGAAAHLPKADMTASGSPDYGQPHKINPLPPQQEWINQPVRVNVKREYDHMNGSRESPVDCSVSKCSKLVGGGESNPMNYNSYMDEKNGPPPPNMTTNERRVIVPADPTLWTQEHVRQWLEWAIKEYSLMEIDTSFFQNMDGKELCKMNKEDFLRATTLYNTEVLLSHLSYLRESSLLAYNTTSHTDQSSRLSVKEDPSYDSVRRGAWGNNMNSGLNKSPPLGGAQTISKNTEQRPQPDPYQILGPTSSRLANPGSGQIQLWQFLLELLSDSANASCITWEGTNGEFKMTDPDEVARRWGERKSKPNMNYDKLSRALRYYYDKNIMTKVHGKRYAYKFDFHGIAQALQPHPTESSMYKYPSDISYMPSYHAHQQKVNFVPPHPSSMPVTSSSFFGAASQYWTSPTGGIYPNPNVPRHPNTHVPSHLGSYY

Another assay deals with T2, EHF (UniProt Q9NZC4).
T2 sequence: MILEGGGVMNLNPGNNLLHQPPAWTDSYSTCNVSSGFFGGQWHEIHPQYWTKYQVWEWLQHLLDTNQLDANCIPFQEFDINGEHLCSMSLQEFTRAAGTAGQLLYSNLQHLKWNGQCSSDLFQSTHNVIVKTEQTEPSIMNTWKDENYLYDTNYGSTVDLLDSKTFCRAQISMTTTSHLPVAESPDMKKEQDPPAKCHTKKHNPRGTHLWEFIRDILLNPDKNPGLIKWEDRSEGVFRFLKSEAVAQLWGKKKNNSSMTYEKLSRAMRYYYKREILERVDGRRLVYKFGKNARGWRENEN

In the next assay the target is T3, ETV2 (UniProt O00321).
T3 sequence: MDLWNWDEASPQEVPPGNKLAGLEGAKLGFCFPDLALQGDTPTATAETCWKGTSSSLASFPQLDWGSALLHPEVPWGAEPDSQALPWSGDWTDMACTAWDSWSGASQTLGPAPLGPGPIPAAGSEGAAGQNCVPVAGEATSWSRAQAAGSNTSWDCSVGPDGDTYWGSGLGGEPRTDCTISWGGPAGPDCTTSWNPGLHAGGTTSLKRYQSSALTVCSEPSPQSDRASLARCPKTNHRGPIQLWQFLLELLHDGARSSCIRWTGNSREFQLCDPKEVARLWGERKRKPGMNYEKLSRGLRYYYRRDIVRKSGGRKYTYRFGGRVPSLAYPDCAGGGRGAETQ

Another assay addresses T4, ETV3L (UniProt Q6ZN32).
T4 sequence: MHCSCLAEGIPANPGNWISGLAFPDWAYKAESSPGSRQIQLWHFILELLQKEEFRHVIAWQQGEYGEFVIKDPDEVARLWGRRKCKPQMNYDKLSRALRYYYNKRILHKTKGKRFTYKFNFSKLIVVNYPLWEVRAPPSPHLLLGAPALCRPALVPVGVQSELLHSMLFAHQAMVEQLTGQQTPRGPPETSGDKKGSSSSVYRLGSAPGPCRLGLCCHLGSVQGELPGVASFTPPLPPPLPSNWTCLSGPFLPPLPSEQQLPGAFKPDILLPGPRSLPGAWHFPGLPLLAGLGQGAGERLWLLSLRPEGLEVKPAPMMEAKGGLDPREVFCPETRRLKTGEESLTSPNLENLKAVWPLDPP

Regarding TCGGTC, the binding signal with FLI1 stood at 0.544; with EHF, 0.627; in the assay with SPIB, 0.632; in the assay with ETV5, 0.541; in the assay with ELF4, 0.582; with ETV2 it was 0.569. In the assay with ETV3L, this sequence returned a binding signal of 0.59.

Regarding AGATTG, the binding signal in the assay with FLI1 turned out to be 0.858; in the assay with EHF, 0.784; with SPIB, 0.939; with ETV5, 0.831; in the assay with ELF4, 0.845; with ETV2 it was 0.9. The sequence also registered a binding signal with ETV3L of 0.834.

For AGACGG, the binding signal was 0.366 with FLI1; 0.38 with EHF; 0.379 with SPIB; 0.39 with ETV5; 0.344 with ELF4; 0.375 with ETV2. In the assay with ETV3L, this sequence returned a binding signal of 0.345.

Regarding GCATAT, the binding signal in the assay with FLI1 turned out to be 0.951; with EHF, 0.892; in the assay with SPIB, 0.883; with ETV5, 0.917; with ELF4 it was 0.933; in the assay with ETV2, 1.02. The sequence further had a binding signal in the assay with ETV3L of 0.996.

Take GGAATC: the binding signal with FLI1 was 0.693; with EHF, 0.747; in the assay with SPIB, 0.698; with ETV5 it was 0.802; with ELF4, 0.704; in the assay with ETV2, 0.724. For the same sequence, the binding signal with ETV3L was determined as 0.768.

Turning to TCGGGC, the binding signal in the assay with FLI1 was 0.497; with EHF it was 0.503; in the assay with SPIB, 0.451; with ETV5, 0.476; in the assay with ELF4 it was 0.489; with ETV2, 0.54. Besides, the binding signal with ETV3L was determined as 0.528.

Consider TGAGGG, for which the binding signal with FLI1 came to 0.595; with EHF, 0.635; with SPIB it was 0.666; with ETV5, 0.634; with ELF4, 0.62; with ETV2, 0.624. In the assay with ETV3L, this sequence returned a binding signal of 0.658.

For the sequence AAAGTG, the binding signal in the assay with FLI1 turned out to be 0.886; in the assay with EHF it was 0.936; in the assay with SPIB, 0.924; with ETV5, 0.884; with ELF4, 0.948; in the assay with ETV2 it was 0.934. The same sequence registered a binding signal with ETV3L of 0.897.

Consider GAACCG, for which the binding signal with FLI1 is 0.717; with EHF it was 0.695; with SPIB, 0.744; with ETV5, 0.745; in the assay with ELF4, 0.658; with ETV2, 0.739. For the same sequence, the binding signal with ETV3L turned out to be 0.73.

For ACAGAG, the binding signal with FLI1 came out at 0.793; in the assay with EHF, 0.745; with SPIB it was 0.706; with ETV5, 0.727; with ELF4, 0.79; in the assay with ETV2 it was 0.802. In the assay with ETV3L, this sequence showed a binding signal of 0.738.

Regarding ACCGAG, the binding signal with FLI1 amounted to 0.777; in the assay with EHF, 0.78; with SPIB, 0.652; with ETV5 it was 0.78; with ELF4 it was 0.743; in the assay with ETV2, 0.769. Also, the binding signal with ETV3L is 0.728.

With CCCAGT, the binding signal with FLI1 was 0.641; in the assay with EHF it was 0.657; with SPIB, 0.667; in the assay with ETV5 it was 0.698; in the assay with ELF4 it was 0.618; with ETV2, 0.641. Moreover, the binding signal with ETV3L is 0.673.

As for AAGTCG, the binding signal with FLI1 was found to be 0.524; with EHF it was 0.466; with SPIB, 0.477; with ETV5, 0.467; with ELF4, 0.473; with ETV2, 0.46. This sequence came in with a binding signal in the assay with ETV3L of 0.484.

With CAGGGT, the binding signal with FLI1 turned out to be 0.901; with EHF, 0.78; with SPIB, 0.823; with ETV5, 0.833; in the assay with ELF4 it was 0.871; with ETV2, 0.735. Further, in the assay with ETV3L, the binding signal stood at 0.85.

For TCAGCG, the binding signal with FLI1 is 0.807; with EHF, 0.773; with SPIB, 0.839; with ETV5, 0.821; in the assay with ELF4 it was 0.777; with ETV2 it was 0.77. The sequence further gave a binding signal with ETV3L of 0.785.

Take TGTGTC: the binding signal in the assay with FLI1 turned out to be 0.733; in the assay with EHF it was 0.743; in the assay with SPIB, 0.818; in the assay with ETV5 it was 0.768; in the assay with ELF4 it was 0.698; with ETV2, 0.879. Moreover, in the assay with ETV3L, the binding signal was 0.731.

With GGCGGA, the binding signal amounted to 0.36 in the assay with FLI1; 0.417 in the assay with EHF; 0.414 in the assay with SPIB; 0.396 with ETV5; 0.324 in the assay with ELF4; 0.377 with ETV2. The same sequence yielded a binding signal in the assay with ETV3L of 0.386.

For the sequence CGGGGC, the binding signal in the assay with FLI1 turned out to be 0.604; with EHF, 0.542; in the assay with SPIB it was 0.586; in the assay with ETV5, 0.62; in the assay with ELF4, 0.591; in the assay with ETV2, 0.636. The binding signal with ETV3L worked out at 0.599.

Take AGGCAT: the binding signal worked out at 0.816 in the assay with FLI1; 0.842 in the assay with EHF; 0.758 with SPIB; 0.78 with ETV5; 0.768 in the assay with ELF4; 0.796 with ETV2. The binding signal in the assay with ETV3L is 0.882.

As for GGCGTG, the binding signal with FLI1 was determined as 0.346; with EHF it was 0.318; in the assay with SPIB, 0.332; with ETV5, 0.34; in the assay with ELF4 it was 0.335; with ETV2, 0.352. In the assay with ETV3L, this sequence showed a binding signal of 0.353.

AAACGT: the binding signal in the assay with FLI1 worked out at 0.954; with EHF, 0.963; with SPIB, 0.97; with ETV5, 0.942; with ELF4, 0.935; with ETV2 it was 0.947. The sequence further gave a binding signal with ETV3L of 0.923.

As for GGATTG, the binding signal is 0.791 with FLI1; 0.764 with EHF; 0.856 with SPIB; 0.783 with ETV5; 0.845 in the assay with ELF4; 0.712 with ETV2. Also, in the assay with ETV3L, the binding signal was 0.856.

Take TCGTGC: the binding signal in the assay with FLI1 was found to be 0.838; with EHF, 0.721; in the assay with SPIB, 0.818; with ETV5, 0.72; with ELF4 it was 0.783; with ETV2 it was 0.824. The binding signal with ETV3L was found to be 0.74.

Turning to GCTCGG, the binding signal stood at 0.823 with FLI1; 0.72 in the assay with EHF; 0.786 in the assay with SPIB; 0.775 with ETV5; 0.799 with ELF4; 0.702 in the assay with ETV2. The same sequence registered a binding signal with ETV3L of 0.778.

Take GGGGAC: the binding signal was found to be 0.487 with FLI1; 0.439 with EHF; 0.455 in the assay with SPIB; 0.441 in the assay with ETV5; 0.45 in the assay with ELF4; 0.474 with ETV2. In the assay with ETV3L, this sequence yielded a binding signal of 0.425.

GAGGCC: the binding signal with FLI1 is 0.426; with EHF, 0.418; in the assay with SPIB, 0.435; in the assay with ETV5, 0.389; with ELF4 it was 0.438; in the assay with ETV2 it was 0.451. The binding signal with ETV3L worked out at 0.412.

On to GCCGGG, for which the binding signal in the assay with FLI1 turned out to be 0.441; in the assay with EHF, 0.378; in the assay with SPIB, 0.371; in the assay with ETV5, 0.371; with ELF4, 0.389; with ETV2, 0.398. Moreover, the binding signal in the assay with ETV3L worked out at 0.371.

ACGGGT: the binding signal turned out to be 0.837 in the assay with FLI1; 0.881 in the assay with EHF; 0.758 with SPIB; 0.904 with ETV5; 0.883 with ELF4; 0.825 with ETV2. In the assay with ETV3L, this sequence displayed a binding signal of 0.796.

As for GAAGAG, the binding signal is 0.886 with FLI1; 0.921 with EHF; 0.913 with SPIB; 0.892 in the assay with ETV5; 0.896 in the assay with ELF4; 0.871 with ETV2. Further, the binding signal with ETV3L worked out at 0.868.

Regarding CGTGGC, the binding signal was determined as 0.83 with FLI1; 0.803 with EHF; 0.946 with SPIB; 0.799 with ETV5; 0.876 with ELF4; 0.908 with ETV2. The sequence also displayed a binding signal with ETV3L of 0.931.
